A negative result means that nothing was seen under these conditions. For some of these results: Construct, isoform or probe ends are uncertain for at least one entry.
Experiments:
Experiment in all cases: SPR
Settings in all cases: all L-nucleotides; ribonucleotides at positions 5, 11, 14, 15, 25, 26, rest deoxy; 5' aminohexyl-40 kDa PEG; Selection buffer: 20 mM Tris pH 7.4, 150 mM NaCl, 5 mM KCl, 1 mM MgCl2, 1 mM CaCl2, 0.1% Tween 20, 0.1% CHAPS, 100 ug/ml HSA, 10 ug/ml yeast RNA, 37 C; synthetic backbone
[1] = target: prepro-vasoactive intestinal peptide (prepro-VIP) (UniProt P01282)
[2] = target: glucagon-like peptide-1 (GLP-1) (UniProt P01275)
[3] = target: glucagon-like peptide-2 (GLP-2) (UniProt P01275)
[4] = target: gastric-inhibitory peptide (GIP) (UniProt P09681)

The chains behind the UniProt entries cited, without tags or fusion partners. Residues count along the entry.
UniProt P01282, 81-122: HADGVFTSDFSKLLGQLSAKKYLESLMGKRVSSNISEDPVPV
UniProt P01275, 98-127: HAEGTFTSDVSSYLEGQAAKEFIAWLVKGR
UniProt P01275, 146-178: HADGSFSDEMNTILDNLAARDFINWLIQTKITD
UniProt P09681, 52-93: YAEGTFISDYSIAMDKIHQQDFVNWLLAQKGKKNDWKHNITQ

Measured: binding result

GCGGGAAATGGGAGGGCTAGGTGGAAGGAATCTGAGCGC [NOX-G15]
no binding: [1] | [2] | [3] | [4]

From article PMC3774380
